PubChem BioAssay AID743121, NCATS | 2013

Aim: 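Genes whose silencing strengthens cell killing by camptothecin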 (primary screen)
Cells: MDA-MB-231 cells, a human breast cancer line
Reagents: single siRNA against human genes, 20 nM siRNA (0.8 pmol per well)
Timing: 120 h (drug added 48 h after transfection, read 72 h later)
Challenge: camptothecin 20 nM (about EC30) for 72 h; vehicle 0.1% DMSO in parallel plates
Read-out: 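Cell viability by ATP luminescence (CellTiter-Glo) as % of non-targeting siRNA wells, and the log2 ratio of viability without drug over viability with camptothecin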
Scale: log2 vehicle/camptothecin viability: higher = stronger sensitisation to camptothecin
Call rule: 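Active genes have an RSA gene-level p-value below 0.001, computed from the ratios of their separate siRNAs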
The whole screen tested about 26,000 reagents; below is a random part of them. 167 of all reagents (0.63%) count as active. 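Calls are per gene from RSA p-values that are not deposited; an individual active-marked siRNA can sensitise only weakly.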 The numbers tell different reagents against one gene apart. Further read-outs or replicates are left out here.

After knock-down of THBS2 (thrombospondin 2) #1, the record shows log2 vehicle/camptothecin viability -0.036; inactive. THBS2 (thrombospondin 2) #2 gave log2 vehicle/camptothecin viability -0.177; inactive. With knock-down of THBS2 (thrombospondin 2) #3 the results were log2 vehicle/camptothecin viability -0.177; inactive. Depletion of THBS2 (thrombospondin 2) #4 gave: log2 vehicle/camptothecin viability -0.341; inactive. Against CKAP5 (cytoskeleton associated protein 5) #1, the entry reads log2 vehicle/camptothecin viability -0.336; inactive. Knock-down of CKAP5 (cytoskeleton associated protein 5) #2 came out at: log2 vehicle/camptothecin viability -0.807; inactive.

CKAP5 (cytoskeleton associated protein 5) #3 showed log2 vehicle/camptothecin viability -0.47; inactive. KCNK1 (potassium two pore domain channel subfamily K member 1) #1 gave log2 vehicle/camptothecin viability 0.685; inactive. Against KCNK1 (potassium two pore domain channel subfamily K member 1) #2 the deposit lists log2 vehicle/camptothecin viability -0.248; inactive. With knock-down of KCNK1 (potassium two pore domain channel subfamily K member 1) #3 the results were log2 vehicle/camptothecin viability -0.132; inactive. Depletion of KCNK1 (potassium two pore domain channel subfamily K member 1) #4 resulted in: log2 vehicle/camptothecin viability -0.0621; inactive. After knock-down of SMYD1 (SET and MYND domain containing 1) #1 the results were log2 vehicle/camptothecin viability -0.0306; inactive.

Silencing of SMYD1 (SET and MYND domain containing 1) #2 resulted in: log2 vehicle/camptothecin viability -0.307; inactive. SMYD1 (SET and MYND domain containing 1) #3 showed log2 vehicle/camptothecin viability -0.498; inactive. SMYD1 (SET and MYND domain containing 1) #4 scored log2 vehicle/camptothecin viability -0.668; inactive.

5 entries from above, reformatted.
Gene	reagent no.	log2 vehicle/camptothecin viability	call
THBS2 (thrombospondin 2)	3	-0.177	inactive
THBS2 (thrombospondin 2)	4	-0.341	inactive
CKAP5 (cytoskeleton associated protein 5)	1	-0.336	inactive
CKAP5 (cytoskeleton associated protein 5)	2	-0.807	inactive
CKAP5 (cytoskeleton associated protein 5)	3	-0.47	inactive

Continued.
Knock-down of CENPH (centromere protein H) #1 came out at: log2 vehicle/camptothecin viability 0.181; inactive. CENPH (centromere protein H) #2 showed log2 vehicle/camptothecin viability -0.164; inactive. Against CENPH (centromere protein H) #3 the deposit lists log2 vehicle/camptothecin viability -0.0975; inactive. Knock-down of CENPH (centromere protein H) #4 resulted in: log2 vehicle/camptothecin viability -0.943; inactive. SPSB1 (splA/ryanodine receptor domain and SOCS box containing 1) #1 gave log2 vehicle/camptothecin viability 0.127; inactive. For SPSB1 (splA/ryanodine receptor domain and SOCS box containing 1) #2, the values are log2 vehicle/camptothecin viability -0.579; inactive.

Depletion of SPSB1 (splA/ryanodine receptor domain and SOCS box containing 1) #3 came out at: log2 vehicle/camptothecin viability 0.346; inactive. After knock-down of SPSB1 (splA/ryanodine receptor domain and SOCS box containing 1) #4, the screen gave log2 vehicle/camptothecin viability -0.439; inactive. KCNV1 #1 showed log2 vehicle/camptothecin viability 0.207; inactive. With knock-down of KCNV1 #2, the screen gave log2 vehicle/camptothecin viability 0.11; inactive. Against KCNV1 #3, the entry reads log2 vehicle/camptothecin viability -0.719; inactive. Depletion of KCNV1 #4 came out at: log2 vehicle/camptothecin viability 0.147; inactive.

After knock-down of SENP7 (SUMO specific peptidase 7) #1, the screen gave log2 vehicle/camptothecin viability 0.0517; inactive. Knock-down of SENP7 (SUMO specific peptidase 7) #2 came out at: log2 vehicle/camptothecin viability -0.0647; inactive. For SENP7 (SUMO specific peptidase 7) #3 the deposit lists log2 vehicle/camptothecin viability 0.0876; inactive. After knock-down of SENP7 (SUMO specific peptidase 7) #4, the record shows log2 vehicle/camptothecin viability -0.446; inactive. With knock-down of SLC7A8 #1, the record shows log2 vehicle/camptothecin viability -0.416; inactive. SLC7A8 #2 gave log2 vehicle/camptothecin viability -0.0889; inactive.

Against SLC7A8 #3 the deposit lists log2 vehicle/camptothecin viability -0.308; inactive. For OR10A5 (olfactory receptor family 10 subfamily A member 5) #1, the entry reads log2 vehicle/camptothecin viability -0.653; inactive. Silencing of OR10A5 (olfactory receptor family 10 subfamily A member 5) #2 gave: log2 vehicle/camptothecin viability -0.32; inactive. Silencing of OR10A5 (olfactory receptor family 10 subfamily A member 5) #3 came out at: log2 vehicle/camptothecin viability -0.366; inactive. OR10A5 (olfactory receptor family 10 subfamily A member 5) #4 showed log2 vehicle/camptothecin viability -0.298; inactive. Silencing of OR10A5 (olfactory receptor family 10 subfamily A member 5) #5 resulted in: log2 vehicle/camptothecin viability -0.417; inactive.

OR10A5 (olfactory receptor family 10 subfamily A member 5) #6 gave log2 vehicle/camptothecin viability -0.101; inactive. Depletion of OR10A5 (olfactory receptor family 10 subfamily A member 5) #7 resulted in: log2 vehicle/camptothecin viability 0.285; inactive.
